# Source: PubChem BioAssay AID493014 (National Center for Advancing Translational Sciences (NCATS), 2011)
# Some of the results follow. The main result of the screen is listed elsewhere. These columns were measured beside it and carry no call. The list favours compounds with an active or inconclusive main result. The note in brackets gives the kind of curve behind each potency; many fits are weak.
# Experiment: qHTS Assay to Find Inhibitors of Chronic Active B-Cell Receptor Signaling
# Settings: ABC-DLBCL IkBa-CBG/CBR reporter, luminescence ratio (green luciferase fused to IkBa over red control in TMD8 lymphoma cells), 4 h
# Summary of the method: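 Compounds up to 46 uM were incubated four hours with TMD8 cells whose green CBG68 luciferase is fused to IkappaBalpha; red CBR luminescence normalised the signal, and concentration-effect curves were fitted to fusion, red and ratio data.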
# [1] = measured here: CBR red luminescence, cell number
# [2] = measured here: IkBa-CBG green luminescence
SMILES,AC50 [1],AC50 [2]
O=C(NCc1nnc(SCc2ccccc2)n1-c1ccc(F)cc1)C12CC3CC(CC(C3)C1)C2,"29.1 µM [falling, single point]",
CCCc1cc(C(=O)NC(C)C2CCCO2)cs1 (stereo not drawn),"12.6 µM [rising, partial curve, poor fit]",
O=C(CCc1nc2ccccc2c(=O)[nH]1)N1CCCc2ccccc21,"18.4 µM [falling, partial curve, poor fit]",
Cc1oc2c(c1C(=O)Nc1ccc(C(=O)O)cc1)CCCC2,"0.058 µM [rising, full curve, poor fit]",
CCOc1ccc(Br)cc1C(=O)N/N=C/c1ccc([N+](=O)[O-])cc1,"12.6 µM [falling, partial curve]",
Cc1ccccc1NC(=O)CC1SC(=O)N(c2ccccc2)C1=O (stereo not drawn),"29.1 µM [falling, single point]",
Cc1cccc(OCc2nnc(SCC(=O)Nc3cc(C)on3)n2C)c1,"25.9 µM [rising, partial curve, poor fit]",
CCCCC(=O)Nc1ccccc1C(=O)OCC(=O)c1ccc2c(c1)OCCO2,"0.82 µM [rising, full curve, poor fit]",
O=C(NNc1ncnc2c1cnn2-c1ccccc1)c1cccs1,"5.01 µM [falling, partial curve, poor fit]",
COc1ccc(Cl)cc1S(=O)(=O)N1CCCC(C(=O)N2CCOCC2)C1 (stereo not drawn),"7.08 µM [falling, full curve]",
CC(=O)n1c2c(c3ccccc31)OC(N)=C(C#N)C2c1cccc(Cl)c1Cl (stereo not drawn),"5.17 µM [falling, full curve]",
Cc1cccn2cc(-c3cc4ccccc4oc3=O)nc12,"28.2 µM [falling, single point]",
NNC(=O)CN1C(CN2CCOCC2)=Nc2ccc(Br)cc2C1c1ccccc1 (stereo not drawn),,"35.5 µM [rising, partial curve, poor fit]"
CN(NS(=O)(=O)c1ccc(Cl)cc1)c1ncc(C(F)(F)F)cc1Cl,"35.5 µM [rising, single point]",
CC(C)c1ccc(N=C2N=C(N)c3ccccc32)cc1,"5.62 µM [rising, full curve]",
Cc1ccccc1NC(=O)c1c(O)c2cccc3c2n(c1=O)CC3,"0.501 µM [falling, full curve]",
COc1ccc(OC)c(NC(=O)CC2C(=O)NCCN2C(=O)Nc2cccc(Cl)c2)c1 (stereo not drawn),"0.00461 µM [rising, full curve, poor fit]",
COc1ccccc1N(C(C)=O)C1SC(=O)N(c2ccccc2)C1=O (stereo not drawn),"4.47 µM [falling, partial curve, poor fit]",
Cc1ccc(N(C(=O)Cn2nnc3ccccc32)C(C(=O)NCc2ccccc2)c2ccccn2)cc1 (stereo not drawn),"16.4 µM [falling, partial curve, poor fit]",
C/C(=N/NC(=O)Cn1nc2ccccc2n1)c1ccc(F)cc1,"4.11 µM [rising, full curve, poor fit]",

# 2 neighbouring entries out of the list so far:
SMILES,AC50 [1],AC50 [2]
CN(NS(=O)(=O)c1ccc(Cl)cc1)c1ncc(C(F)(F)F)cc1Cl,"35.5 µM [rising, single point]",
CC(C)c1ccc(N=C2N=C(N)c3ccccc32)cc1,"5.62 µM [rising, full curve]",

# Following part

SMILES,AC50 [1],AC50 [2]
Cc1cccc(CSc2nc3c(c(-c4cccs4)c2C#N)CN(C)CC3)c1,"18.4 µM [falling, partial curve, poor fit]","9.2 µM [rising, partial curve, poor fit]"
Cc1ccc(NC(=O)c2cccs2)cc1NC(=O)c1ccco1,"20.6 µM [falling, partial curve]",
CC(C)c1nc(SCC(=O)N2c3ccccc3CC2C)c2ccccc2n1 (stereo not drawn),"29.1 µM [falling, single point]",
COc1cccc(C(=O)Nc2nnc(SCC(=O)Nc3ccc(NC(C)=O)cc3)s2)c1,"7.94 µM [falling, partial curve, poor fit]",
CCN(CC)CCC(=O)N1c2ccccc2Sc2ccc(Cl)cc21,"25.9 µM [falling, single point]",
CCCN(CC(=O)Nc1ccccc1C)C(=O)C1CCN(C(=O)Nc2ccccc2)CC1,"3.26 µM [rising, partial curve, poor fit]",
CC(OC(=O)CCc1nc2ccccc2c(=O)[nH]1)C(=O)c1ccc(C(C)(C)C)cc1 (stereo not drawn),"29.1 µM [falling, partial curve, poor fit]",
CCc1ccc(C(=O)/C=C/c2cnn(C)c2C)s1,"13 µM [falling, partial curve]",
Cc1cccc(C)c1NC(=O)c1cc2c(=O)c3ccccc3oc2nc1C(F)(F)F,"3.98 µM [rising, single point]",
Cc1nn(-c2ccccc2)c(Cl)c1C(=O)NCC(C)C,"3.26 µM [falling, partial curve, poor fit]",
COc1cc(/C=N/NC(=O)c2ccc(O)cc2)ccc1OCC(=O)Nc1cccc([N+](=O)[O-])c1,"5.62 µM [falling, full curve]",
CC1=C(C(=O)OC(C)C)C(c2ccc(N(C)C)cc2)C2=C(CC(C)(C)CC2=O)N1 (stereo not drawn),"16.4 µM [rising, single point]",
C[C@@H]1CCC[C@H](C)N1NC(=O)c1ccc(Cl)c(S(N)(=O)=O)c1,"5.8 µM [rising, full curve, poor fit]",
Cc1ccc(C(=O)NCC(=O)OC(C)C(=O)Nc2ccc(N(C)C)cc2)cc1C (stereo not drawn),"3.98 µM [rising, full curve, poor fit]",
N#Cc1c(N)n(-c2ccccc2N)c2nc3ccccc3nc12,"0.794 µM [rising, full curve]",
O=C(Nc1nc2cc3c(cc2s1)OCO3)c1cccc(N2C(=O)CCC2=O)c1,"3.55 µM [falling, partial curve, poor fit]",
CCN(CC)S(=O)(=O)c1cccc(C(=O)OCC(=O)NC(C)c2ccccc2)c1 (stereo not drawn),"10 µM [rising, partial curve, poor fit]",
Clc1cccc2sc(N3CCN(c4ccccc4)CC3)nc12,"2.91 µM [rising, full curve]",
O=C(c1ccc(CNc2c(N3CCCC3)c(=O)c2=O)cc1)N1CC=C(c2ccccc2)CC1,"35.5 µM [falling, single point]",
CC(C)CC(NC(=O)C1CCC(C)CC1)C(=O)Nc1ccc2c(c1)OCCO2 (stereo not drawn),"6.31 µM [rising, full curve, poor fit]",

SMILES,AC50 [1],AC50 [2]
Cc1ccc(S(=O)(=O)Nc2ccc3c(c2)c2c(n3S(=O)(=O)c3ccc(C)cc3)CCCC2=O)cc1,"32.6 µM [rising, single point]",
COc1ccc(C(C)=O)cc1COc1ccc(Cl)c(C)c1,"15.8 µM [rising, partial curve, poor fit]",
Cc1cccc(C)c1N1CCN(C(=O)N2CCOCC2)CC1,"5.01 µM [rising, full curve]",
CCCCn1c(N)c(N(CCC(C)C)C(=O)C2CC(=O)N(c3cccc(SC)c3)C2)c(=O)[nH]c1=O (stereo not drawn),"2.91 µM [rising, full curve, poor fit]",
COc1cccc(OC)c1OCc1cc(C2C3CCCC=C3C(C#N)=C(N)C2(C#N)C#N)c(C)cc1C (stereo not drawn),"5.01 µM [falling, full curve, poor fit]",
NC(=O)C1(N2CCCCC2)CCN(C(=O)c2ccccc2)CC1,"18.4 µM [falling, single point]",
COCC(C)NC(=O)c1ccc(CN2CCc3ccccc3C2)cc1 (stereo not drawn),"6.31 µM [rising, partial curve, poor fit]",
COc1ccc(CCC(=O)Nc2nc(C)c(C(=O)N(C)C)s2)cc1,"0.794 µM [rising, full curve, poor fit]",
O=C(c1cc(Br)c(Br)s1)N1CCc2ccccc2C1,"0.291 µM [rising, full curve, poor fit]",
CS(=O)(=O)c1ccc2nnn(OCC(=O)Nc3cccc(C#N)c3)c2c1,"12.6 µM [falling, single point]",
Cn1c(SCC(=O)N/N=C/c2ccc(O)c(O)c2)nc2ccccc21,"10 µM [falling, partial curve, poor fit]",
O=C(Nc1ccc(S(=O)(=O)N2CCC(C(=O)NC3CCCCC3)CC2)cc1)c1ccco1,"8.2 µM [rising, partial curve, poor fit]",
CSc1ccc(CN2CCc3c([nH]c4ccccc34)C2)cc1,"4.47 µM [falling, partial curve]",
CNC(=O)CN1C(=O)c2cccc3cccc1c23,"23.1 µM [falling, partial curve, poor fit]","25.9 µM [rising, partial curve, poor fit]"
COc1ccc(-c2cc(C(=O)NCC(c3ccco3)N(C)C)c3ccccc3n2)cc1OC (stereo not drawn),"6.51 µM [rising, single point]",
COc1ccc(NC(=S)/N=C(\N)Nc2nc(C)c3ccccc3n2)cc1,"10 µM [falling, partial curve, poor fit]",
O=C(OCc1nc2ccccc2s1)C1CCN(C2=NS(=O)(=O)c3ccccc32)CC1,"12.6 µM [rising, partial curve]",
CC[C@]12c3[nH]c4cc(CCC(=O)N(C)C)ccc4c3CCN1C(=O)[C@@H](CC(=O)NCCc1ccccn1)C[C@@H]2C(=O)N1CCN(C(=O)C2CC2)CC1,"6.51 µM [rising, single point]","13 µM [falling, partial curve, poor fit]"
COc1ccc(-c2cc(C(F)(F)F)nc(NC3CCCC3)n2)cc1OC,"7.94 µM [rising, partial curve]",
O=C(NNS(=O)(=O)c1ccccc1)c1cc2cc3ccccc3nc2s1,"4.47 µM [falling, full curve, poor fit]",
